Results as given in PubChem BioAssay AID2662 (National Center for Advancing Translational Sciences (NCATS), 2010).
Where “and” joins values, the source holds several entries; their conditions need not be identical. Equal entries are not always repeated. In all, about 290,000 compounds went through this assay and about 110 (0.038%) were called active. The inconclusive results got no clear call from the source; some entries with a clear call stand among them for comparison. Calls come from the whole dose curve; as a rule, active = well fitted inhibition curve with a large enough effect in the polarisation, with a control signal flat (not every such curve was filed as active); inconclusive = small, poorly fitted or top-dose-only effect, or effect the other way, or a change in a side signal; inactive = no such curve, though single readings can be large or run the other way; the % refers to the polarisation. A potency beside an inconclusive call is a rough fit, not a confirmed value. “Side channel” marks fits to a control or component signal instead of the main read-out.
Potency is the fitted concentration of half-maximal effect.

Sequences of proteins named here, by UniProt entry; tags and fusion partners are left off.
UniProt Q03164, whole entry, looked up: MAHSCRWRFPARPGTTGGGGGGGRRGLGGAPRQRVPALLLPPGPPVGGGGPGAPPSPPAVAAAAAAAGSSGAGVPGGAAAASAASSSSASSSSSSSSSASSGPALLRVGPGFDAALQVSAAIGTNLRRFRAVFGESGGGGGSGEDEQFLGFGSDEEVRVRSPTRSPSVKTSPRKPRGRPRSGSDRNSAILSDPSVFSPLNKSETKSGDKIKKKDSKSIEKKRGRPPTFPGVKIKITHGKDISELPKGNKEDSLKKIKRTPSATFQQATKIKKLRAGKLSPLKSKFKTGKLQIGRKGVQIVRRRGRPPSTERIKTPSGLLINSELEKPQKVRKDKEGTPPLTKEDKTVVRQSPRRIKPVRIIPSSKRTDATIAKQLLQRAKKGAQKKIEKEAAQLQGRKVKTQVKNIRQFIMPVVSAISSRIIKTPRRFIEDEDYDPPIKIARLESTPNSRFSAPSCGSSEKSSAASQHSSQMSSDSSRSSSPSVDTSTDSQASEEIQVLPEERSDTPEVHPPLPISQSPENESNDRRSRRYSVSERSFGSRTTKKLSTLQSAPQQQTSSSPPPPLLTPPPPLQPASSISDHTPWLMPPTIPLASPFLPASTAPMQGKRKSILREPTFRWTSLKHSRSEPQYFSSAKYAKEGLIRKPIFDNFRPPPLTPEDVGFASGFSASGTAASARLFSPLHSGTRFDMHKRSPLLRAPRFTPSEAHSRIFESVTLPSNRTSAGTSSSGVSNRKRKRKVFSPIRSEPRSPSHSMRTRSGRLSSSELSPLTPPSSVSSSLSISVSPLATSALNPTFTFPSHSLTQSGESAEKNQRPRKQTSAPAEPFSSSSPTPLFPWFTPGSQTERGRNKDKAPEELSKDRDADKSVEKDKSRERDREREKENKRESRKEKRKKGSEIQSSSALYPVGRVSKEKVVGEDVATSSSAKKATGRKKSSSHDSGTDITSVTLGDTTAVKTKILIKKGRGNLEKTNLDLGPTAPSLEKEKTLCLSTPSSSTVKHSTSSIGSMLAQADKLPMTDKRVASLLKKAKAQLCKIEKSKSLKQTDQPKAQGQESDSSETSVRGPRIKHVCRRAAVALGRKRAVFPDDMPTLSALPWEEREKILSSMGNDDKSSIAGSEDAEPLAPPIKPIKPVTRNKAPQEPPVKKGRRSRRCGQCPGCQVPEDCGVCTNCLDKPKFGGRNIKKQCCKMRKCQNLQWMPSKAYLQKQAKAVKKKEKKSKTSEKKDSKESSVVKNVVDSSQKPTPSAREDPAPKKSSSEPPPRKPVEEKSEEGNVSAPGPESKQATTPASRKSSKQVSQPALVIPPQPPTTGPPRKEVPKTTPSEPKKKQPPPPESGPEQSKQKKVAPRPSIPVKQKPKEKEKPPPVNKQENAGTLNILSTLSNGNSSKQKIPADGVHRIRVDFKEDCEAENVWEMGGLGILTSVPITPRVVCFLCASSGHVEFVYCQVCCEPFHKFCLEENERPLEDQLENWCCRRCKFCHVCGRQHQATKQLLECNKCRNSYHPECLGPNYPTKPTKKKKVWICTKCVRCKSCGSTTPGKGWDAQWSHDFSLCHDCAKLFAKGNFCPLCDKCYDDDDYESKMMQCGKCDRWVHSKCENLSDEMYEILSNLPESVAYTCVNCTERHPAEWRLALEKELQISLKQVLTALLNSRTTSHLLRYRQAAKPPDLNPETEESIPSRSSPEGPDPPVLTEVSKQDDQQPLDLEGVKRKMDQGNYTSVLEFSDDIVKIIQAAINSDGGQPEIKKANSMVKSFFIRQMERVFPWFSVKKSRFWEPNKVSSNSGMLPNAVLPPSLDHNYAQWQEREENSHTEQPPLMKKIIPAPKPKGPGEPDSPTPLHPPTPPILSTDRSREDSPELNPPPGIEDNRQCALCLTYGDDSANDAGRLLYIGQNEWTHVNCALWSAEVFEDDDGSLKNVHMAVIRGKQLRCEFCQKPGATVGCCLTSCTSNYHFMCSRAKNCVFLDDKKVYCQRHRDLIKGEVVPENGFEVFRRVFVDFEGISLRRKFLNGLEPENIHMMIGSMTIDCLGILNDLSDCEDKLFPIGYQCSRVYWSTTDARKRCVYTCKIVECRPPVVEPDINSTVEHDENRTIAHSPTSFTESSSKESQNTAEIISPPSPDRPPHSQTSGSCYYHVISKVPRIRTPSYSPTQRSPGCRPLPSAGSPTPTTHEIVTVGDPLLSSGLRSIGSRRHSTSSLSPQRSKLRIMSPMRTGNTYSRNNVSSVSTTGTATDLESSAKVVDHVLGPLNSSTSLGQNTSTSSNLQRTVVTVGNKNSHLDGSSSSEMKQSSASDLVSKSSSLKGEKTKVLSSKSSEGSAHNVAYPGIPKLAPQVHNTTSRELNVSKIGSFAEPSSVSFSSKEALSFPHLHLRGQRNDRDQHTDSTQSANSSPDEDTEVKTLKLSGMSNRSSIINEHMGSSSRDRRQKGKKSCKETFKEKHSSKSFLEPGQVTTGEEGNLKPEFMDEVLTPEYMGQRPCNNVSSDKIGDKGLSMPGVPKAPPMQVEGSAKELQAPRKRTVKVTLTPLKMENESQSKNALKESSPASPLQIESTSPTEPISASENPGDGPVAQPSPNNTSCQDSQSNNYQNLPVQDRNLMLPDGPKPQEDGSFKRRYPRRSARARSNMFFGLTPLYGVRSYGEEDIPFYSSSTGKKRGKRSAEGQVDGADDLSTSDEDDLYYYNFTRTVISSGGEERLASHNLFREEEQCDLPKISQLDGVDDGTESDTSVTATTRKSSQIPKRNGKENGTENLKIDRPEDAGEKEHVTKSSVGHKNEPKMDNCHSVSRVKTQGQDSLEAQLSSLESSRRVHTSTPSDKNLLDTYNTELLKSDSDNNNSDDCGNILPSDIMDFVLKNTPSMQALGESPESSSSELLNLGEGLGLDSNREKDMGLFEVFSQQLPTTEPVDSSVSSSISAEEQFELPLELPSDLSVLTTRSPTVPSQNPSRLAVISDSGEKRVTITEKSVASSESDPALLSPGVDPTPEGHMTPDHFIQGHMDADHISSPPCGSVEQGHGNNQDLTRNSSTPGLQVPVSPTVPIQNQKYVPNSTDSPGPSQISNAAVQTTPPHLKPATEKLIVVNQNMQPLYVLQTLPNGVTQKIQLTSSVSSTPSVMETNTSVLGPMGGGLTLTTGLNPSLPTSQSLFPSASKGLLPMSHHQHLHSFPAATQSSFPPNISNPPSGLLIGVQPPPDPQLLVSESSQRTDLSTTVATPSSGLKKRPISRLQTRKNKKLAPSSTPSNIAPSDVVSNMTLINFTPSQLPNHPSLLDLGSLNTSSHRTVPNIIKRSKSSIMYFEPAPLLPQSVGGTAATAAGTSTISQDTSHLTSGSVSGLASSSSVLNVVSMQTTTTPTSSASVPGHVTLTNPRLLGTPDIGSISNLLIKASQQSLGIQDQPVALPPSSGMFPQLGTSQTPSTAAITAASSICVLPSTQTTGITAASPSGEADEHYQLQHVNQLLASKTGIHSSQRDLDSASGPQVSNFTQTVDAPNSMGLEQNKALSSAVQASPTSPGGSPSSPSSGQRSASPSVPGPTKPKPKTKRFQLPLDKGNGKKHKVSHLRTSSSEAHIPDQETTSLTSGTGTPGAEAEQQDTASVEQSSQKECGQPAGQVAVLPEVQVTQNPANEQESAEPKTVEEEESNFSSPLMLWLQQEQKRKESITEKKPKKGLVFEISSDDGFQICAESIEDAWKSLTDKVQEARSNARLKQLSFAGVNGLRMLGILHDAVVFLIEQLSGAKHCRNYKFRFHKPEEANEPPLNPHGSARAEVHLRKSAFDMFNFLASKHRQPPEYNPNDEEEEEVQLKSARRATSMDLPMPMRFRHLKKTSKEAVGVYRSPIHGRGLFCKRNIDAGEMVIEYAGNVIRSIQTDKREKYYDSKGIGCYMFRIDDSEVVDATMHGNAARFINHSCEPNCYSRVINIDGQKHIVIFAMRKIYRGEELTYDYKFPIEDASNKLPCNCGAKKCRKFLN

The compounds below were run against Histone-lysine N-methyltransferase 2A (Homo sapiens) (UniProt Q03164) (assay: qHTS Fluorescence Polarization Assay for Inhibitors of MLL CXXC domain - DNA interaction). Conditions: MLL-CXXC / FITC-HOXA9 DNA fluorescence polarization; series mostly up to 115 µM.
Summary of the method: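 Purified MLL-CXXC (added from a 7 uM solution) was preincubated 5 min at ambient with pinned compounds in 50 mM Tris-HCl pH 7.5, 50 mM NaCl, 1 mM DTT, 0.05% BSA. Fluorescein-labeled HOX-A9 DNA (50 nM solution) followed, 30 min, then polarization read.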
For `O=c1[nH]c(=S)[nH]c(O)c1N=Nc1ccc(-c2ccccc2)cc1[N+](=O)[O-]`, the Potency was inconclusive: 28.2 µM [quencher, side channel, partial curve].
With `C=CCN1C(=O)/C(=C\c2ccc(N3CCOCC3)o2)C(=O)NC1=S` the Potency was inconclusive: 35.5 µM [fluorescent, side channel, partial curve].
In the case of `Nc1cc2nc3ccccc3nc2cc1N`, the Potency is reported as inconclusive: 35.5 µM [fluorescent, side channel, partial curve].
`CN1C(=O)C(=Cc2ccc(N3CCOCC3)o2)C(=O)N(C)C1=S` was tested, and the Potency was inconclusive: 56.2 µM [fluorescent, side channel, partial curve].
In the case of `CCOc1ccc(N2C(=O)/C(=C/c3ccc(C)o3)C(=O)NC2=S)cc1`, the Potency is reported as inconclusive: 89.1 µM [fluorescent, side channel, single point].
`O=[N+]([O-])c1ccc(N2CCCCCC2)c2nonc12` was tested, and the Potency was inconclusive: 14.1 µM [fluorescent, side channel, partial curve].
`C=CCN1C(=O)NC(=O)/C(=C/c2c(CCN(C)C(=O)c3ccccc3)cc3c(c2OC)OCO3)C1=O` was tested, and the Potency was inconclusive: 7.94 µM [inhibitor, full curve, poor fit].
`CN1C2CCC1CC(OC(=O)c1cc(Cl)cc(Cl)c1)C2` (centres undefined) was tested, and the Potency was “inactive”.
In the case of `Cc1ccc(OCCn2cccc2/C=C2/C(=O)NC(=O)N(Cc3ccco3)C2=O)cc1`, the Potency is reported as inconclusive: 15.8 µM [inhibitor, partial curve].
`CCOc1cc(-c2ccc(N)c(OCC)c2)ccc1N` was tested, and the Potency was inconclusive: 31.6 µM [fluorescent, partial curve].
`COc1ccccc1N=Nc1ccc(N)c(C)c1` was tested, and the Potency was inconclusive: 44.7 µM [fluorescent, side channel, single point].
With `O=C1NC(=S)NC(=O)C12C(c1ccc(F)cc1)NC(=S)NC2c1ccc(F)cc1` (centres undefined) the Potency was inconclusive: 8.91 µM [inhibitor, partial curve].
With `Cc1cccc(N2C(=O)NC(=O)/C(=C/c3ccc(-c4ccc(C(=O)O)c(Cl)c4)o3)C2=O)c1` the Potency was inconclusive: 35.5 µM [inhibitor, single point].
In the case of `CN1CCN(c2ccc(N)cc2)CC1`, the Potency is reported as inconclusive: 39.8 µM [quencher, side channel, single point].
In the case of `CN1C(=O)/C(=C\N2CCc3ccccc32)C(=O)NC1=S`, the Potency is reported as inconclusive: 39.8 µM [fluorescent, side channel, single point].
For `CC(=O)OCC1=C(C(=O)[O-])N2C(=O)[C@@H](NC(=O)CCC[C@@H](N)C(=O)[O-])[C@H]2SC1.[Zn+2]`, the Potency was “inactive”.
`CN(c1ccccc1)c1ccc([N+](=O)[O-])c2nonc12` was tested, and the Potency was inconclusive: 28.2 µM [fluorescent, side channel, partial curve].
For `O=c1oc2ccccc2c(O)c1[C@H]1c2ccc(O)cc2Oc2c1c(=O)oc1ccccc21`, the Potency was “inactive”.
With `Cc1ccc(/C=C2\C(=O)NC(=S)N(c3ccccc3F)C2=O)s1` the Potency was “inactive”.
With `O=C1NC(=S)N(Cc2ccco2)C(=O)/C1=C\c1cccs1` the Potency was inconclusive: 35.5 µM [fluorescent, side channel, single point].
`CN1/C(=C\C=C\C2=[N+](C)c3ccc4ccccc4c3C2(C)C)C(C)(C)c2ccccc21` was tested, and the Potency was inconclusive: 7.94 µM [quencher, side channel, full curve].
With `O=c1c2ccccc2nc(/C=C/c2ccc([N+](=O)[O-])o2)n1-c1ccc(O)cc1` the Potency was inconclusive: 11.2 µM [fluorescent, side channel, partial curve, poor fit].
`CC[C@@H](CO)NC(=O)[C@@H]1C=C2c3cccc4c3c(cn4C)C[C@H]2N(C)C1` was tested, and the Potency was “inactive and inconclusive: 35.5 µM [inhibitor, single point] and inconclusive: 20 µM [quencher, side channel, partial curve]”.
For `CCOC(=O)c1c(/N=C/C2C(=O)NC(=O)NC2=O)sc2c1CCC2`, the Potency was inconclusive: 35.5 µM [fluorescent, side channel, single point].
With `CCC1(CCCC(=O)c2ccc(F)cc2)C(=O)NC(=S)NC1=O` the Potency was “inactive”.
`Cc1ccc(C2(O)CN3CCC2CC3)cc1` (centres undefined) was tested, and the Potency was inconclusive: 15.8 µM [fluorescent, side channel, single point].
In the case of `Cn1c(O)c(Cc2cccc(Cl)c2Cl)c(=O)n(C)c1=O`, the Potency is reported as inconclusive: 12.6 µM [fluorescent, side channel, single point].
For `O=P(OCC(F)(F)C(F)F)(N1CCOCC1)N1CCOCC1`, the Potency was inconclusive: 35.5 µM [inhibitor, single point].
With `CC(=O)c1ccc2c(c1)C1C(Cl)C(Sc3ccccc3[N+](=O)[O-])CC1C(C(=O)O)N2` (centres undefined) the Potency was inconclusive: 11.2 µM [inhibitor, single point].
`CCCC/C(=N/O)c1c(C)[nH]c2ccccc12` was tested, and the Potency was “inactive”.
With `Cn1c(O)c(C2=NN(C(=O)CCl)C(c3ccccc3)C2)c(=O)n(C)c1=O` (centres undefined) the Potency was inconclusive: 12.6 µM [inhibitor, partial curve, poor fit].
With `CNCCc1c(C)n[nH]c1C` the Potency was “inactive”.
In the case of `COc1ccc(C2SCC(=O)Nc3c2c(=O)[nH]n3C2CCCCC2)cc1` (centres undefined), the Potency is reported as “inactive”.
`COc1ccc(N=Cc2c(O)n(Cc3ccccc3)c(=S)[nH]c2=O)c(OC)c1` was tested, and the Potency was active: 31.6 µM.
For `CCN1C(=O)C(=C/C=C/c2ccco2)C(=O)N(CC)C1=S`, the Potency was inconclusive: 28.2 µM [fluorescent, side channel, partial curve].
In the case of `COC(=O)C(O)(c1ccc(N=Cc2ccccc2O)c(C)c1)C(F)(F)F` (centres undefined), the Potency is reported as inconclusive: 63.1 µM [inhibitor, single point].
`CCN(CC)c1ccc(/C=C2\C(=O)NC(=S)N(C)C2=O)o1` was tested, and the Potency was inconclusive: 25.1 µM [fluorescent, side channel, partial curve].
`FC(F)(F)c1ccc2c(c1)NP(=S)(N1CCOCC1)c1nccn1-2` (centres undefined) was tested, and the Potency was inconclusive: 3.16 µM [inhibitor, full curve].
In the case of `CN1CCc2nc(SCc3ccccc3Br)c(C#N)cc2C1`, the Potency is reported as inconclusive: 31.6 µM [fluorescent, side channel, partial curve].
In the case of `Cc1nc(-c2ccc(-c3ccc(C(=O)N4CCc5cc6c(cc54)C4(CCN(C)CC4)CO6)cc3)c(C)c2)no1`, the Potency is reported as inconclusive: 35.5 µM [quencher, partial curve].
For `CC(=O)N1CCC2(CC1)CC(=O)c1cc(OCC(=O)N3CCN(C)CC3)ccc1O2`, the Potency was inconclusive: 10 µM [quencher, side channel, single point].
In the case of `Cc1ccc(N2C(=O)NC(=O)/C(=C\c3cn(CC(=O)O)c4ccccc34)C2=O)cc1`, the Potency is reported as inconclusive: 17.8 µM [inhibitor, partial curve].
For `Cc1cccc(N2C(=O)NC(=O)/C(=C/c3cc4c(cc3[N+](=O)[O-])OCO4)C2=O)c1`, the Potency was inconclusive: 35.5 µM [inhibitor, single point].
For `C=CCn1cc(C=C2C(=O)NC(=O)NC2=O)c2ccccc21`, the Potency was inconclusive: 63.1 µM [fluorescent, side channel, partial curve].
`Cc1cc(C)cc(OCCOc2cccc(C=C3C(=O)NC(=O)NC3=O)c2)c1` was tested, and the Potency was inconclusive: 25.1 µM [inhibitor, partial curve].
With `c1ccc(CCn2nnnc2CN2CCC(n3nnc4ccccc43)CC2)cc1` the Potency was “inactive”.
For `CCC(C)C(NC(=O)CCCNC(=O)CCC(=O)OC1O[C@H]2OC3(C)CC[C@H]4[C@H](C)CCC(C1C)C24OO3)C(=O)O` (some centres undefined), the Potency was inconclusive: 15.8 µM [fluorescent, side channel, single point].
For `CCn1c(O)c(/C=N/NC(=O)c2ccncc2)c(=O)n(CC)c1=S`, the Potency was inconclusive: 10 µM [fluorescent, side channel, full curve, poor fit].
In the case of `CC1=CC(=O)NP(=O)(Oc2ccc3ccccc3c2)N1` (centres undefined), the Potency is reported as “inactive”.
In the case of `Cc1c(C)c2ccc(OCC(=O)N3CCC[C@@H]3C(=O)O)c(C)c2oc1=O`, the Potency is reported as inconclusive: 8.91 µM [fluorescent, side channel, full curve, poor fit].
For `Cc1ccc(/C=C2/C(=O)NC(=O)N(CCc3ccc(F)cc3)C2=O)o1`, the Potency was inconclusive: 31.6 µM [inhibitor, single point].
In the case of `O=[N+]([O-])c1cccc(CN2CCN(Cc3ccc(Cl)cc3)CC2)c1`, the Potency is reported as “inactive”.
In the case of `CCCCCCCCCCCCCCCC[N+](C)(C)C`, the Potency is reported as inconclusive: 44.7 µM [quencher, side channel, partial curve].
`O=C1N(c2nncs2)CCN1[N+](=O)[O-]` was tested, and the Potency was inconclusive: 22.4 µM [inhibitor, partial curve].
In the case of `COc1ccc(OC)c(N=Cc2c(O)n(Cc3ccccc3)c(=S)[nH]c2=O)c1`, the Potency is reported as inconclusive: 35.5 µM [fluorescent, side channel, partial curve].
For `COc1cc(OC)c(OC)cc1/C=C(\C#N)C(=O)NCc1cccs1`, the Potency was inconclusive: 70.8 µM [fluorescent, side channel, single point].
`O=C1NC(=O)C(=Cc2ccc(Oc3ccc([N+](=O)[O-])cc3)cc2)C(=O)N1` was tested, and the Potency was inconclusive: 89.1 µM [inhibitor, single point].
In the case of `O=C1NC(=O)C(=Cc2ccc(N3CCOCC3)o2)C(=O)N1`, the Potency is reported as inconclusive: 31.6 µM [fluorescent, partial curve].
